Some results were stated once for a whole list of compounds, not compound by compound. For at least one compound, name, drawing or mass did not settle the structure.
Key:
[1] = tested on: 9L gliosarcoma cells and a variety of human cancer cell lines; assay: Amino acid uptake assay in vitro as summarised in text; assay type: cell-based, rat; human; conditions: BCH (L-type transport inhibitor) 10 mM, 30 minutes
Description: The tumor cells were initially grown as monolayers in T-flasks containing Dulbecco's Modified Eagle's Medium (DMEM) under humidified incubator conditions (37° C., 5% CO2/95% air). The growth media were supplemented with 10% fetal calf serum and antibiotics (10,000 units/ml penicillin and 10 mg/ml streptomycin). The growth media were replaced three times per week, and the cells were passaged so the cells would reach confluency in a week's time.
When the monolayers were confluent, cells were prepared for experimentation in the following manner. […] A sample of the cells was counted under a microscope using a hemocytometer, and the live/dead fraction estimated through trypan blue staining (>98% viability). […]
In this study, approximately 4.55×10^5 cells were exposed to either [^18F]10 (anti-FACBC) or [^18F]15 (syn-FACBC, 5 μCi) in 3 ml of amino acid free media ±transporter inhibitors (10 mM) for 30 minutes under incubator conditions in 12×75 mm glass vials. […] The vials were placed in a Packard Cobra II Auto-Gamma counter, the raw counts decay corrected, and the activity per cell number determined. The data from these studies (expressed as percent uptake relative to control) were graphed using Excel, with statistical comparisons between the groups analyzed using a 1-way ANOVA (GraphPad Prism software package). […]

[2] = tested on: 9L gliosarcoma tumor / contralateral normal brain; assay: Rodent biodistribution in rats implanted intracranially with 9L gliosarcoma cells; assay type: in vivo, male Fischer rats; conditions: 60 minutes after intravenous injection
Description: All animal experiments were carried out under humane conditions and were approved by the Institutional Animal Use and Care Committee (IUCAC) at Emory University. Rat 9L gliosarcoma cells were implanted into the brains of male Fischer rats. Briefly, anesthetized rats placed in a stereotactic head holder were injected with a suspension of 4×10^4 rat 9L gliosarcoma cells (1×10^7 per mL) in a location 3 mm right of midline and 1 mm anterior to the bregma at a depth of 5 mm deep to the outer table. The injection was performed over the course of 2 minutes, and the needle was withdrawn over the course of 1 minute to minimize the backflow of tumor cells. The burr hole and scalp incision were closed, and the animals were returned to their original colony after recovering from the procedure. […]
The tissue distribution of radioactivity was determined in 16 normal male Fischer 344 rats (200-250 g) after intravenous injection of ˜85 μCi of [^18F]10 or [^18F]15 in 0.3 mL of sterile water. […] The animals were dissected, and selected tissues were weighed and counted along with dose standards in a Packard Cobra II Auto-Gamma Counter. […] A comparison of the uptake of activity in tumor tissue, […] at each time point was analyzed using a 1-way ANOVA (GraphPad Prism software package). […]

Row | SMILES | uptake of activity blocked by BCH relative to controls [1] [%] | uptake of radioactivity in brain tissue contralateral to the tumor [2] [% dose/g]
1 | N[C@]1(C(=O)O)C[C@H]([18F])C1 [Syn-[^18F]FACBC, syn-[^18F]1-amino-3-fluorocyclobutane-1-carboxylic acid] | > 50 | < 0.3
2 | NC1(C(=O)O)CC([18F])C1 (stereo not drawn) [Anti-[^18F]FACBC, trans-(anti-) 1-amino-3-[^18F]fluorocyclobutane-1-carboxylic acid] | > 50 | < 0.3

Source: US20060292073A1, “Stereoselective Synthesis of Amino Acid Analogs for Tumor Imaging” (priority 2005, published 2006)
